For this test, the target named is recombination signal-binding immunoglobulin kappa J region (RBPJ) (human (endogenous in K562 and MEG01)) (UniProt Q06330). The test is described as follows: co-IP; protein extracts of K562 and MEG01 cells incubated with 5 ug of antibody; Pierce Co-Immunoprecipitation Kit; immunoblot with anti-ASF1A and anti-RBPJ.

Chains of the proteins cited; added tags and fusions are not shown.
UniProt Q06330: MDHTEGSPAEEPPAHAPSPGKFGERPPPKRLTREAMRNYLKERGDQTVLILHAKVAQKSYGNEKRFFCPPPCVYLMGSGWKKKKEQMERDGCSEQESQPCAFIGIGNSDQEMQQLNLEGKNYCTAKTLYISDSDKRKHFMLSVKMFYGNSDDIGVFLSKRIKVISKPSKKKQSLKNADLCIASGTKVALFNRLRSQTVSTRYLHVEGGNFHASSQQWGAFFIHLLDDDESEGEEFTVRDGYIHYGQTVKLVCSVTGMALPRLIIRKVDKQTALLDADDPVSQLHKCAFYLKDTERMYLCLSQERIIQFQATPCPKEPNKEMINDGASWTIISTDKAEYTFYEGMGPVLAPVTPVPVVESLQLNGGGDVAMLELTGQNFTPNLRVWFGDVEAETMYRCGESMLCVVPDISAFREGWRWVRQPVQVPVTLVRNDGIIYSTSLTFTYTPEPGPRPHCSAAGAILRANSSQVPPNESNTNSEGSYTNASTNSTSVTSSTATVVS
UniProt Q9Y294: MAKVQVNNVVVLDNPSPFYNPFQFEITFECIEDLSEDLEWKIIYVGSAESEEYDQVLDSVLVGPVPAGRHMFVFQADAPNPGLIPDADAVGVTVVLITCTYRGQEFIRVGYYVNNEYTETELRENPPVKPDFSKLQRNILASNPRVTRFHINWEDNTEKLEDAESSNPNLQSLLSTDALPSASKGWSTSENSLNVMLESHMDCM

These are yes or no findings as the source states them, for the method shown. Binding seen in cells or lysates may run through a third protein. Some entries that bind do so weakly or less than the wild type.

The values that follow come from PMC9527247.

“ASF1A (anti-silencing function 1 A) (from UniProt Q9Y294 1-204)”: the binding entry is on record as “binds”.
